The source of these data is paper doi:10.1101/719815 (bioRxiv, 2019).

No constants are given. Whether binding was seen depends on the method and setting. Binding seen in cells or lysates may run through a third protein. Some binding calls cover weakened binding; strength is not graded here.

What all share (assay): split reporter
The target of test [1] is T1, Cdc24_(428-854)CRU (yeast) (UniProt P11433).
T1 sequence: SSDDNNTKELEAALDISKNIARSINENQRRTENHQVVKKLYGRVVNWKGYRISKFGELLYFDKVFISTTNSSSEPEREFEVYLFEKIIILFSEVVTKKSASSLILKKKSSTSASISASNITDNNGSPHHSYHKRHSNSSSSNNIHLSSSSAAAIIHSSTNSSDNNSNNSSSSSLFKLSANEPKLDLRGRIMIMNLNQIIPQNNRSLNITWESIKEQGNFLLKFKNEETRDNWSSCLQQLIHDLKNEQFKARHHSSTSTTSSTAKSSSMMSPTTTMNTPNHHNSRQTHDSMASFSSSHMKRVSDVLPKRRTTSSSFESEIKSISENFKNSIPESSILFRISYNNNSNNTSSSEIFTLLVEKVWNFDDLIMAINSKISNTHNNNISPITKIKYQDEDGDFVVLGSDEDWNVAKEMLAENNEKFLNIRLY

The target in test [2] is T2, Cdc24_(755-854)CRU (yeast) (UniProt P11433).
T2 sequence: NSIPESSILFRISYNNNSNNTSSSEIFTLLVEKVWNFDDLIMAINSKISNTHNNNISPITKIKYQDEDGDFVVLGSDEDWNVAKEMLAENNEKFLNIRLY

For the next test, the target named is T3, Cdc24KKCRU (yeast) (UniProt P11433).
T3 sequence: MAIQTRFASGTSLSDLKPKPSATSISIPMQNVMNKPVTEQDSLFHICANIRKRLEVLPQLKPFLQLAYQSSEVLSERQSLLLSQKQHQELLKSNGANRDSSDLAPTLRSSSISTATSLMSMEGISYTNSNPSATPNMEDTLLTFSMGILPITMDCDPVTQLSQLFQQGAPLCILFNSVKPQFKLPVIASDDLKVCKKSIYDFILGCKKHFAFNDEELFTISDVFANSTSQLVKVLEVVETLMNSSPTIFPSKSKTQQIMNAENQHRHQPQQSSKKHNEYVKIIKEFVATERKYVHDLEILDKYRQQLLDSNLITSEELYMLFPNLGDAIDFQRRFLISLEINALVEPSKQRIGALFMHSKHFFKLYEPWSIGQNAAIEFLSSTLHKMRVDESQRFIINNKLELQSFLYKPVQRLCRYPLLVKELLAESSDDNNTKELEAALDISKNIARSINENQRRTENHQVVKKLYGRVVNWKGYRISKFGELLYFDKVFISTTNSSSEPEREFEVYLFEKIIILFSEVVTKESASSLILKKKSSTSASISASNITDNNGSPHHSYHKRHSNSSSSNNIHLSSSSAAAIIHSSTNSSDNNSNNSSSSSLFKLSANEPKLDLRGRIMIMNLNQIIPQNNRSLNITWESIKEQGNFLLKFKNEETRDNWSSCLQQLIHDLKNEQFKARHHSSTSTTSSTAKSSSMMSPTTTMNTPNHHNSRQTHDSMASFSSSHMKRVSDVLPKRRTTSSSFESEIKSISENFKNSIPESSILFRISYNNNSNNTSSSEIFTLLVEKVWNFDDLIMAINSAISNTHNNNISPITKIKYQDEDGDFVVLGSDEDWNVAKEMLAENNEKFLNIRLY

B1: Nub-Cdc11 (protein, UniProt P32458 1-415)
chain: MSGIIDASSALRKRKHLKRGITFTVMIVGQSGSGRSTFINTLCGQQVVDTSTTILLPTDTSTEIDLQLREETVELEDDEGVKIQLNIIDTPGFGDSLDNSPSFEIISDYIRHQYDEILLEESRVRRNPRFKDGRVHCCLYLINPTGHGLKEIDVEFIRQLGSLVNIIPVISKSDSLTRDELKLNKKLIMEDIDRWNLPIYNFPFDEDEISDEDYETNMYLRTLLPFAIIGSNEVYEMGGDVGTIRGRKYPWGILDVEDSSISDFVILRNALLISHLHDLKNYTHEILYERYRTEALSGESVAAESIRPNLTKLNGSSSSSTTTRRNTNPFKQSNNINNDVLNPASDMHGQSTGENNETYMTREEQIRLEEERLKAFEERVQQELLLKRQELLQREKELREIEARLEKEAKIKQEE
With B1, the binding result is on record as “binds” in test [1], “no binding” in test [2] and “binds weakly” with Cdc24KKCRU (yeast).
